Reference: paper PMC10817852, “Vascular injury activates the ELK1/SND1/SRF pathway to promote vascular smooth muscle cell proliferative phenotype and neointimal hyperplasia”

Target: GST-fusion protein containing the SN domain of SND1 (GST-SN)
Experiment: pull-down; GST-fusion proteins of SND1 (full length, SN, TSN) with in vitro translated SRF; only the target purified

B1: In vitro translated SRF (protein, UniProt Q9JM73 1-504)
chain: MLPSQAGAAAALGRGSALGGNLNRTPTGRPGGGGGTRGANGGRVPGNGAGLGQSRLEREAAAAAAPTAGALYSGSEGDSESGEEEELGAERRGLKRSLSEMELGVVVGGPEAAAAAAGGYGPVSGAVSGAKPGKKTRGRVKIKMEFIDNKLRRYTTFSKRKTGIMKKAYELSTLTGTQVLLLVASETGHVYTFATRKLQPMITSETGKALIQTCLNSPDSPPRSDPTTDQRMSATGFEEPDLTYQVSESDSSGETKDTLKPAFTVTNLPGTTSTIQTAPSTSTTMQVSSGPSFPITNYLAPVSASVSPSAVSSANGTVLKSTGSGPVSSGGLMQLPTSFTLMPGGAVAQQVPVQAIHVHQAPQQASPSRDSSTDLTQTSSSGTVTLPATIMTSSVPTTVGGHMMYPSPHAVMYAPTSGLADGSLTVLNAFSQAPSTMQVSHSQVQEPGGVPQVFLTAPSGTVQIPVSAVQLHQMAVIGQQAGSSSNLTELQVVNLDATHSTKSE
For B1, the binding was “binds”.

These are yes or no findings as the source states them, for the method shown. In cells and extracts the contact can be indirect. Binding calls can cover weak binding; strength is not graded here.
